PubChem BioAssay AID602313 (National Center for Advancing Translational Sciences (NCATS), 2012)
The campaign covered roughly 390,000 compounds. About 760 (0.19%) were called active. The shares of active, inactive and inconclusive entries below differ from those in the screen. Calls follow the shape of the dose curve; as a rule, active = well fitted inhibition curve with a large enough effect; inconclusive = small, poorly fitted or top-dose-only effect; inactive = flat fitted curve, though single readings scatter. Potencies of inconclusive entries are doubtful fits and often do not repeat.

test: qHTS for Inhibitors of Vif-A3F Interactions: qHTS; conditions: HeLa A3F-eYFP + Vif (tagged APOBEC3F with the HIV-1 protein that degrades it), YFP fluorescence increase; series mostly up to 46.1 µM; activity, negative = active: at the top concentration; also: nearly all actives have a fitted effect of over 65% in size; as to activity, negative = active: % of control where 0% means no effect
Summary of the method: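 Fluorescence increase (Ex 488/Em 500-530) after overnight compound treatment at 37 deg C flags inhibition of Vif-driven A3F-eYFP loss in stable HeLa A3F-eYFP/Vif cells seeded overnight beforehand.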
Potency is read from the fitted curve at half-maximal effect.

Structure (SMILES)	Potency	activity, negative = active
O=C(c1ccco1)N1CCN(Cc2nc(Cc3ccccc3)no2)CC1	inconclusive: 11.2 µM [inhibitor, partial curve, poor fit]	
Cc1ccc(-c2cc(-c3ccccc3)nc(N)c2C#N)o1	inconclusive: 22.4 µM [inhibitor, partial curve, poor fit]	
c1ccc(OCCOCCN2CCOCC2)cc1		inactive: 0.365%
CN(C)CCCN(C(=O)c1ccc(C(=O)c2ccccc2)cc1)c1nc2c(F)cccc2s1	inconclusive: 25.1 µM [inhibitor, single point]	
CCS(=O)(=O)Nc1ccc(C2=NN(S(=O)(=O)CC)C(c3cccs3)C2)cc1 (centres undefined)	inconclusive: 25.1 µM [inhibitor, single point]	
CC(C)CN(C(=O)COC(=O)C12CC3CC(CC(C3)C1)C2)c1c(N)n(Cc2ccccc2)c(=O)[nH]c1=O	inconclusive: 35.5 µM [inhibitor, single point]	
O=C(Nc1ccc(N2CCCC2)cc1)c1cc(Br)ccc1Cl	inconclusive: 1.26 µM [inhibitor, partial curve, poor fit]	
O=[N+]([O-])c1ccc(N=Nc2c(O)[nH]c3ccc(F)cc23)cc1	inconclusive: 10 µM [inhibitor, partial curve, poor fit]	
Cc1ccc(NC(=O)C2CCCN(S(=O)(=O)c3cccc4cccnc34)C2)c(Br)c1 (centres undefined)		inactive: 2.93%
FC(F)(F)c1ccccc1NC(=S)NN=C1CCCCCC1	active: 6.31 µM	
Cc1ccc(C2=Nc3ccccc3N(CC(=O)Nc3ccccc3C)C(=O)C2)cc1C	inconclusive: 31.6 µM [inhibitor, single point]	
Cc1ccccc1NC1=C/C(=N\S(=O)(=O)c2ccc(C(=O)O)cc2)c2ccccc2C1=O	inconclusive: 6.31 µM [inhibitor, single point]	
O=C(/C=C/c1ccccc1)CCN1CCOCC1	inconclusive: 5.01 µM [inhibitor, single point]	
O=C1CCCCCN1Sc1ccccc1	inconclusive: 35.5 µM [inhibitor, single point]	
CCOC(=O)C1CCC(=O)C1 (centres undefined)	inconclusive: 6.31 µM [inhibitor, single point]	
CCN(CC)CCNC(=O)NC(=O)c1ccc(Cl)cc1	inconclusive: 6.31 µM [inhibitor, single point]	
CNc1ccc(Br)cc(C(=O)/C=C/c2ccc(OC)cc2)c1=O	inconclusive: 35.5 µM [inhibitor, single point]	
N#C/C(=C(/O)COC(=O)c1ccc2c(c1)OCCO2)c1nc2ccccc2[nH]1	inconclusive: 35.5 µM [inhibitor, single point]	
COc1cccc(C(=O)Nc2cccc3c2ccc2cccn23)c1	inconclusive: 15.8 µM [inhibitor, partial curve, poor fit]	
CC(C)C1OC2(C)OC(=N)C1(C#N)C(C#N)(C#N)C2c1ccccc1 (centres undefined)	inconclusive: 35.5 µM [inhibitor, single point]	
COc1cc(C=C2C(=O)c3ccccc3C2=O)cc(OC)c1OC	active: 25.1 µM	
CC(C)C(C)(C#N)NC(=O)CSc1nncn1-c1ccccc1 (centres undefined)	inconclusive: 1 µM [inhibitor, partial curve, poor fit]	
COc1cccc(CNC(=O)CN2N=C(c3ccc(C)cc3)CCC2=O)c1		inactive: -9.21%
CCOC(=O)/C=c1/s/c(=C/c2ccc3cc(OC)ccc3c2)c(=O)n1CC(=O)NCc1ccc2c(c1)OCO2	inconclusive: 3.16 µM [inhibitor, partial curve, poor fit]	
Cc1ccccc1OCc1n(CC(=O)OC2CC(C)CCC2C(C)C)c2ccccc2[n+]1C (centres undefined)	inactive	
CCOc1ccccc1-n1c(SCC(=O)Nc2ccc(CC)cc2)nc2n[nH]c(C)c2c1=N	inconclusive: 11.2 µM [inhibitor, partial curve, poor fit]	
Cc1ccc(-c2nc3c(c(=O)[nH]c(=O)n3Cc3ccccc3)n2Cc2ccccc2)o1	inconclusive: 3.98 µM [inhibitor, single point]	

Structure (SMILES)	Potency	activity, negative = active
O=C(N/N=C/c1ccccc1Cl)c1nc2ccc([N+](=O)[O-])cc2c(=O)[nH]1	inconclusive: 4.47 µM [inhibitor, single point]	
CC(=O)C1(O)CCC2C3CC(C)C4=CC(=O)C=CC4(C)C3(F)C(O)CC21C (centres undefined)		inactive: 11.6%
NC(=S)N/N=C1\CCOc2ccc(Cl)cc21	inconclusive: 6.31 µM [inhibitor, single point]	
CC(C)(C)Nc1c([N+](=O)[O-])c(=O)sc2ccccc12	inconclusive: 2.82 µM [inhibitor, full curve, poor fit]	
Cc1sc2nc(SCC(=O)N3CCOCC3)[nH]c(=O)c2c1-c1ccccc1	inconclusive: 3.16 µM [inhibitor, partial curve]	
COc1cccc(CNC(=O)C2CCN(S(=O)(=O)c3ccc(C)cc3)CC2)c1		inactive: 5.33%
CCC(=O)Nc1cccc(C2=NN(c3ccccc3)C(c3ccc(OC)cc3)C2)c1 (centres undefined)		inactive: -4.01%
C=CCn1c(COc2ccc(CC)cc2)nnc1SC/C(O)=C(\C#N)c1nc2ccccc2[nH]1	inconclusive: 35.5 µM [inhibitor, single point]	
N=c1c(C(=O)NC2CCCCC2)cc2c(=O)n3ccccc3nc2n1Cc1cccnc1		inactive: -11%
CCOc1ccccc1NC(=O)COC(=O)C1CC(=O)N(c2c(C)cccc2C)C1 (centres undefined)	inconclusive: 35.5 µM [inhibitor, single point]	
Cc1cc(C)c(OCC(=O)Nc2nc(-c3ccccn3)cs2)c(C)c1	inconclusive: 3.98 µM [inhibitor, full curve, poor fit]	
O=S(=O)(Nc1ncnc2sccc12)c1cccc(F)c1	inconclusive: 20 µM [inhibitor, single point]	
CC12CCCC(CC(=O)O)(C1)NC(=O)C2 (centres undefined)	inconclusive: 35.5 µM [inhibitor, single point]	
Cc1cccc(CS(=O)(=O)c2ncc(Cl)c(C(=O)Nc3nc4ccc(F)cc4s3)n2)c1		inactive: 3.36%
CCN1CCc2c(sc(NC(=O)c3cc4ccccc4cc3OC)c2C(N)=O)C1	inconclusive: 20 µM [inhibitor, partial curve, poor fit]	
Cc1cccc(-c2nnc(SCC(=O)N3CCCc4ccccc43)o2)c1		inactive: 4.4%
COc1cc2c(cc1OC)C(COc1ccc(F)cc1)N(C(=O)c1ccccc1F)CC2 (centres undefined)		inactive: 7.39%
COc1ccc(NC(=O)CSc2nc(N)c(C#N)cc2C#N)cc1		inactive: -14.6%
Cc1ccccc1-c1nc(CS(=O)(=O)CC(=O)Nc2cccc(C(F)(F)F)c2)c(C)o1	inconclusive: 25.1 µM [inhibitor, single point]	
Cc1cccc(N2C(=O)C3CCCN3C2=S)c1 (centres undefined)		inactive: 0.497%
C=CCn1cnc2scc(-c3ccc(OC)cc3)c2c1=O	inconclusive: 6.31 µM [inhibitor, single point]	
COc1cccc(-c2cc(C(=O)N3CCN(C(c4ccccc4)c4ccccc4)CC3)no2)c1	inconclusive: 3.55 µM [inhibitor, single point]	
CC(C)(C)n1nc2c(c1NC(=O)Cc1ccc(Cl)cc1)CS(=O)(=O)C2	inconclusive: 2.82 µM [inhibitor, partial curve, poor fit]	
CN1CCN(CCCNC(=O)c2ccc(CSCc3cccc(Cl)c3)o2)CC1	inconclusive: 5.62 µM [inhibitor, single point]	
N#Cc1c(N)nc(SCc2ccccc2)c(C#N)c1-c1ccco1	inconclusive: 12.6 µM [inhibitor, partial curve, poor fit]	
CCCCNc1ccc2c3c(cccc13)C(=O)N(CCCC)C2=O		inactive: -39.2%
CCCN1C=CC(=CC=C(C#N)C#N)C=C1	inconclusive: 20 µM [inhibitor, partial curve, poor fit]	

Quoted at random: 2 records from the list
Structure (SMILES)	Potency	activity, negative = active
Cc1ccccc1-c1nc(CS(=O)(=O)CC(=O)Nc2cccc(C(F)(F)F)c2)c(C)o1	inconclusive: 25.1 µM [inhibitor, single point]	
COc1cccc(CNC(=O)C2CCN(S(=O)(=O)c3ccc(C)cc3)CC2)c1		inactive: 5.33%

Carrying on.

Structure (SMILES)	Potency	activity, negative = active
Cc1ccccc1CNC(=O)c1ccccc1NC(=O)c1nsc2ccccc12	inconclusive: 3.16 µM [inhibitor, full curve, poor fit]	
CCOc1ccccc1NC(=O)CCSc1nc2n[nH]c(C)c2c(=N)n1-c1ccccc1Cl		inactive: -15%
CCCCn1c(=O)n(CC(=O)Nc2ccc(C)c(Cl)c2)c(=O)c2c1ncn2Cc1ccco1	inconclusive: 35.5 µM [inhibitor, single point]	
C/C(=N\Nc1ncnc2sc(C)c(C)c12)c1ccccn1	inconclusive: 28.2 µM [inhibitor, single point]	
CCOc1ccc(S(=O)(=O)N/N=C2/CC(c3ccccc3)Oc3ccccc32)cc1 (centres undefined)		inactive: 13.9%
CCC1(CC)NC(=O)N(CC(=O)OCC(=O)Nc2ccc(C(F)(F)F)cc2)C1=O	inconclusive: 6.31 µM [inhibitor, single point]	
C=CCOc1cccc(C2C(C(=O)c3ccco3)=C(O)C(=O)N2Cc2ccncc2)c1 (centres undefined)		inactive: 0%
CCn1cc(C(=O)Nc2sc(C)c(C)c2C(=O)OC)cn1	inconclusive: 0.355 µM [inhibitor, partial curve, poor fit]	
Cc1cccc(C(=O)Nc2cccc(C(=O)N/N=C/c3cccc(C)n3)c2)c1		inactive: -13.5%
O=S(=O)(c1ccc(N2CCCC2)nc1)N1CCCC1	inconclusive: 35.5 µM [inhibitor, partial curve, poor fit]	
CC(C)(CNC(=O)COc1ccccc1Cc1ccccc1)N1CCOCC1		inactive: 4.64%
Cc1sc2ncnc(N/N=C/c3cccc(O)c3)c2c1C	inconclusive: 15.8 µM [inhibitor, single point]	
O=C(c1ccc(S(=O)(=O)NCc2ccco2)cc1)N1CCN(c2ccccc2)CC1	inconclusive: 35.5 µM [inhibitor, single point]	
CCN(CC)c1ccc(NC(=O)Nc2cccc3ccccc23)cc1	inconclusive: 12.6 µM [inhibitor, partial curve, poor fit]	
N#CC1=C(N)SC(N)=C(C#N)C1c1ccnc2ccccc12	inconclusive: 20 µM [inhibitor, single point]	
Cc1ccc(/C=C/C(=O)Nc2cccnc2)o1		inactive: 0.834%
COc1ccc(/C=N\N2CCN(Cc3ccccc3Cl)CC2)cc1	inconclusive: 20 µM [inhibitor, partial curve, poor fit]	
CCOc1ccc(N/C=C/C(=O)c2ccc(OC)c(OC)c2)cc1		inactive: -6.88%
CCNc1nc(N)nc(Oc2ccc(OCC(=O)OC)nn2)n1		inactive: 5.37%
COc1ccc(NC(=O)CN(C)S(=O)(=O)c2ccc(C)cc2)c([N+](=O)[O-])c1	inconclusive: 20 µM [inhibitor, partial curve, poor fit]	
NNC(=O)c1sc(-c2ccc(Cl)cc2)cc1N	inconclusive: 35.5 µM [inhibitor, single point]	
Cc1cc(C(=O)Nc2ccc3c(c2)CCC3)c2ccccc2n1	inconclusive: 35.5 µM [inhibitor, single point]	
Cn1c(=O)c2c(ncn2CC(=O)OCC(=O)Nc2cc(Cl)ccc2C#N)n(C)c1=O	inconclusive: 35.5 µM [inhibitor, partial curve, poor fit]	
COc1ccc2cc(C(=O)COC(=O)COc3ccc4c(C)cc(=O)oc4c3)ccc2c1	inconclusive: 3.55 µM [inhibitor, single point]	
CC(C)c1ccccc1NC(=S)NC(=O)C1CCCCC1	inconclusive: 15.8 µM [inhibitor, single point]	

Reformatted field by field: entries from further up.
Cc1cccc(C(=O)Nc2cccc(C(=O)N/N=C/c3cccc(C)n3)c2)c1
  activity, negative = active: inactive: -13.5%
O=S(=O)(c1ccc(N2CCCC2)nc1)N1CCCC1
  Potency: inconclusive: 35.5 µM [inhibitor, partial curve, poor fit]
CC(C)(CNC(=O)COc1ccccc1Cc1ccccc1)N1CCOCC1
  activity, negative = active: inactive: 4.64%
Cc1sc2ncnc(N/N=C/c3cccc(O)c3)c2c1C
  Potency: inconclusive: 15.8 µM [inhibitor, single point]
